Results reported in the supplement of paper PMC6078165.

System: BT20
Assay: relative JC-1 red fluorescence (viability) vs pre-drug, coculture with fibroblast (fraction); higher = more viable cancer cells
Description: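 JC-1 labelled TNBC cells cocultured 1:1 (1,500 cells each) with CellTrace Violet stained primary or stromal fibroblasts in 384-well plates in FluoroBrite medium, treated with one of 42 anticancer drugs at 0.1, 1, 10 or 100 uM. JC-1 red fluorescence (mitochondrial integrity in cancer cells only) was read by plate reader every 8 h for 72 h. Values are normalised to each well's pre-drug value. The stock of one drug was tenfold lower, so its dose labels may be too high.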

COc1cc([C@@H]2c3cc4c(cc3[C@@H](O[C@@H]3O[C@@H]5CO[C@@H](C)O[C@H]5[C@H](O)[C@H]3O)[C@H]3COC(=O)[C@H]23)OCO4)cc(OC)c1O [Etoposide]
relative JC-1 red fluorescence
Conditions | 8 h | 16 h | 24 h | 32 h | 40 h | 48 h | 56 h | 64 h | 72 h
0.1 µM, coculture fibroblast: C12385 | 0.867 ± 0.0078 | 0.798 ± 0.0087 | 0.769 ± 0.0091 | 0.717 ± 0.017 | 0.655 ± 0.02 | 0.629 ± 0.016 | 0.615 ± 0.015 | 0.6081 ± 0.0019 | 0.611 ± 0.0063
0.1 µM, coculture fibroblast: H6013 | 0.8986 ± 0.0063 | 0.823 ± 0.036 | 0.789 ± 0.089 | 0.732 ± 0.11 | 0.694 ± 0.12 | 0.68 ± 0.13 | 0.689 ± 0.14 | 0.677 ± 0.14 | 0.662 ± 0.14
0.1 µM, coculture fibroblast: H6019 | 0.855 ± 0.019 | 0.797 ± 0.02 | 0.77 ± 0.032 | 0.715 ± 0.032 | 0.667 ± 0.032 | 0.658 ± 0.037 | 0.627 ± 0.029 | 0.593 ± 0.03 | 0.582 ± 0.02
0.1 µM, coculture fibroblast: H6076 | 0.87 ± 0.14 | 0.892 ± 0.013 | 0.811 ± 0.013 | 0.773 ± 0.022 | 0.74 ± 0.052 | 0.712 ± 0.07 | 0.709 ± 0.077 | 0.712 ± 0.092 | 0.705 ± 0.1
0.1 µM, coculture fibroblast: H6231 | 0.939 ± 0.061 | 0.875 ± 0.014 | 0.801 ± 0.034 | 0.748 ± 0.046 | 0.704 ± 0.05 | 0.66 ± 0.062 | 0.643 ± 0.058 | 0.627 ± 0.068 | 0.605 ± 0.076
0.1 µM, coculture fibroblast: HADF | 0.943 ± 0.017 | 0.892 ± 0.039 | 0.856 ± 0.066 | 0.807 ± 0.075 | 0.793 ± 0.097 | 0.755 ± 0.12 | 0.748 ± 0.13 | 0.746 ± 0.15 | 0.727 ± 0.16
0.1 µM, coculture fibroblast: HCFa | 0.925 ± 0.0078 | 0.861 ± 0.034 | 0.815 ± 0.055 | 0.76 ± 0.079 | 0.723 ± 0.092 | 0.691 ± 0.1 | 0.668 ± 0.11 | 0.644 ± 0.12 | 0.61 ± 0.13
0.1 µM, coculture fibroblast: HCPF | 0.984 ± 0.019 | 0.8993 ± 0.0033 | 0.827 ± 0.021 | 0.784 ± 0.03 | 0.766 ± 0.024 | 0.732 ± 0.034 | 0.699 ± 0.04 | 0.696 ± 0.057 | 0.678 ± 0.065
0.1 µM, coculture fibroblast: HHSteC | 0.926 ± 0.016 | 0.912 ± 0.021 | 0.905 ± 0.05 | 0.836 ± 0.06 | 0.793 ± 0.071 | 0.768 ± 0.074 | 0.752 ± 0.083 | 0.742 ± 0.086 | 0.718 ± 0.087
0.1 µM, coculture fibroblast: HMF | 0.7815 ± 0.0078 | 0.896 ± 0.011 | 0.76 ± 0.015 | 0.694 ± 0.019 | 0.645 ± 0.036 | 0.605 ± 0.041 | 0.576 ± 0.042 | 0.558 ± 0.05 | 0.534 ± 0.059
0.1 µM, coculture fibroblast: HPFa | 0.92669 ± 0.00024 | 0.884 ± 0.024 | 0.878 ± 0.027 | 0.795 ± 0.03 | 0.765 ± 0.045 | 0.718 ± 0.06 | 0.705 ± 0.052 | 0.68 ± 0.072 | 0.632 ± 0.069
0.1 µM, coculture fibroblast: HUF | 0.866 ± 0.038 | 0.806 ± 0.039 | 0.792 ± 0.051 | 0.714 ± 0.069 | 0.659 ± 0.068 | 0.627 ± 0.061 | 0.621 ± 0.064 | 0.605 ± 0.056 | 0.596 ± 0.05
0.1 µM, coculture fibroblast: Hs5 | 0.973 ± 0.036 | 0.879 ± 0.049 | 0.826 ± 0.045 | 0.784 ± 0.036 | 0.749 ± 0.047 | 0.722 ± 0.062 | 0.707 ± 0.057 | 0.685 ± 0.071 | 0.671 ± 0.071
0.1 µM, coculture fibroblast: Hs27A | 0.843 ± 0.12 | 0.898 ± 0.14 | 0.9507 ± 0.0095 | 0.944 ± 0.0095 | 0.911 ± 0.011 | 0.9039 ± 0.009 | 0.894 ± 0.016 | 0.864 ± 0.048 | 0.832 ± 0.066
0.1 µM, coculture fibroblast: Hs343T | 0.959 ± 0.015 | 0.842 ± 0.028 | 0.738 ± 0.05 | 0.67 ± 0.043 | 0.632 ± 0.071 | 0.597 ± 0.1 | 0.583 ± 0.1 | 0.58 ± 0.12 | 0.562 ± 0.12
0.1 µM, coculture fibroblast: WS1 | 0.8515 ± 0.0071 | 0.775 ± 0.032 | 0.729 ± 0.037 | 0.655 ± 0.044 | 0.606 ± 0.044 | 0.567 ± 0.051 | 0.538 ± 0.053 | 0.516 ± 0.046 | 0.508 ± 0.043
1 µM, coculture fibroblast: C12385 | 0.871 ± 0.026 | 0.7837 ± 0.0035 | 0.744 ± 0.012 | 0.677 ± 0.025 | 0.631 ± 0.022 | 0.607 ± 0.029 | 0.581 ± 0.024 | 0.568 ± 0.026 | 0.565 ± 0.017
1 µM, coculture fibroblast: H6013 | 0.9113 ± 0.0013 | 0.887 ± 0.0093 | 0.885 ± 0.042 | 0.847 ± 0.049 | 0.832 ± 0.069 | 0.837 ± 0.067 | 0.863 ± 0.083 | 0.86 ± 0.076 | 0.854 ± 0.074
1 µM, coculture fibroblast: H6019 | 0.844 ± 0.003 | 0.7858 ± 0.0077 | 0.803 ± 0.015 | 0.7592 ± 0.0023 | 0.7216 ± 0.0011 | 0.712 ± 0.0077 | 0.685 ± 0.019 | 0.665 ± 0.026 | 0.658 ± 0.022
1 µM, coculture fibroblast: H6076 | 0.9534 ± 0.0072 | 0.878 ± 0.011 | 0.7923 ± 0.0062 | 0.755 ± 0.019 | 0.719 ± 0.018 | 0.684 ± 0.014 | 0.677 ± 0.0073 | 0.672 ± 0.0095 | 0.656 ± 0.018
1 µM, coculture fibroblast: H6231 | 0.912 ± 0.059 | 0.878 ± 0.03 | 0.806 ± 0.013 | 0.761 ± 0.013 | 0.716 ± 0.044 | 0.668 ± 0.065 | 0.637 ± 0.086 | 0.617 ± 0.11 | 0.613 ± 0.12
1 µM, coculture fibroblast: HADF | 0.913 ± 0.04 | 0.848 ± 0.017 | 0.819 ± 0.024 | 0.7689 ± 0.002 | 0.7518 ± 0.0049 | 0.73 ± 0.016 | 0.737 ± 0.0089 | 0.738 ± 0.012 | 0.731 ± 0.016
1 µM, coculture fibroblast: HCFa | 0.927 ± 0.036 | 0.875 ± 0.028 | 0.829 ± 0.018 | 0.764 ± 0.024 | 0.71 ± 0.025 | 0.677 ± 0.018 | 0.646 ± 0.022 | 0.623 ± 0.018 | 0.597 ± 0.024
1 µM, coculture fibroblast: HCPF | 0.956 ± 0.017 | 0.87348 ± 0.00024 | 0.795 ± 0.029 | 0.738 ± 0.018 | 0.696 ± 0.017 | 0.6567 ± 0.0015 | 0.626 ± 0.0084 | 0.6151 ± 0.006 | 0.592 ± 0.01
1 µM, coculture fibroblast: HHSteC | 0.895 ± 0.038 | 0.88 ± 0.051 | 0.884 ± 0.057 | 0.808 ± 0.05 | 0.774 ± 0.049 | 0.746 ± 0.043 | 0.731 ± 0.043 | 0.705 ± 0.047 | 0.689 ± 0.048
1 µM, coculture fibroblast: HMF | 0.937 ± 0.034 | 0.824 ± 0.025 | 0.7337 ± 0.0023 | 0.675 ± 0.016 | 0.625 ± 0.046 | 0.578 ± 0.041 | 0.547 ± 0.066 | 0.528 ± 0.095 | 0.517 ± 0.11
1 µM, coculture fibroblast: HPFa | 0.891 ± 0.018 | 0.841 ± 0.019 | 0.835 ± 0.015 | 0.759 ± 0.019 | 0.74 ± 0.025 | 0.696 ± 0.027 | 0.689 ± 0.025 | 0.671 ± 0.032 | 0.636 ± 0.037
1 µM, coculture fibroblast: HUF | 0.916 ± 0.05 | 0.864 ± 0.07 | 0.865 ± 0.11 | 0.801 ± 0.13 | 0.759 ± 0.14 | 0.736 ± 0.15 | 0.729 ± 0.16 | 0.717 ± 0.15 | 0.703 ± 0.16
1 µM, coculture fibroblast: Hs5 | 0.954 ± 0.012 | 0.873 ± 0.028 | 0.837 ± 0.078 | 0.79 ± 0.093 | 0.759 ± 0.086 | 0.724 ± 0.085 | 0.711 ± 0.092 | 0.695 ± 0.086 | 0.684 ± 0.079
1 µM, coculture fibroblast: Hs27A | 0.952 ± 0.06 | 0.909 ± 0.098 | 0.851 ± 0.13 | 0.937 ± 0.071 | 0.916 ± 0.075 | 0.922 ± 0.074 | 0.924 ± 0.078 | 0.913 ± 0.069 | 0.884 ± 0.076
1 µM, coculture fibroblast: Hs343T | 0.923 ± 0.052 | 0.808 ± 0.045 | 0.724 ± 0.019 | 0.6476 ± 0.0024 | 0.608 ± 0.037 | 0.572 ± 0.042 | 0.56 ± 0.066 | 0.556 ± 0.075 | 0.543 ± 0.085
1 µM, coculture fibroblast: WS1 | 0.8717 ± 0.003 | 0.804 ± 0.056 | 0.818 ± 0.041 | 0.764 ± 0.044 | 0.717 ± 0.04 | 0.704 ± 0.037 | 0.688 ± 0.035 | 0.69 ± 0.025 | 0.691 ± 0.012

± gives the standard deviation of the averaged measurements. The reference is the same well before dosing, and untreated signal decays as well.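 Labels refer to human fibroblasts, largely primary: uterine (C12385, HUF), lung (H6013), bone (Hs27A), adrenal (HADF), skin (WS1), plus mammary HMF and breast cancer-associated Hs343T. Cancer lines are basal-like or mesenchymal-like triple-negative breast cancer. The paper counts as hits responses shifting over 3x the replicate standard deviation. The tissue of the other fibroblasts is not given here.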
